The text below walks through data of US20140243268A1 (GEORGIA REGENTS RESEARCH INSTITUTE, published 2014).

Amino acid sequences for entries named in this document (tags omitted). A change or cut given only in a name is not applied to a line headed by its entry. Chains listed by the source or under a name are the forms on record and can include a tag or linker.
HA-Erbin (pKH3-HA-Erbin) (Q96RT1, form named): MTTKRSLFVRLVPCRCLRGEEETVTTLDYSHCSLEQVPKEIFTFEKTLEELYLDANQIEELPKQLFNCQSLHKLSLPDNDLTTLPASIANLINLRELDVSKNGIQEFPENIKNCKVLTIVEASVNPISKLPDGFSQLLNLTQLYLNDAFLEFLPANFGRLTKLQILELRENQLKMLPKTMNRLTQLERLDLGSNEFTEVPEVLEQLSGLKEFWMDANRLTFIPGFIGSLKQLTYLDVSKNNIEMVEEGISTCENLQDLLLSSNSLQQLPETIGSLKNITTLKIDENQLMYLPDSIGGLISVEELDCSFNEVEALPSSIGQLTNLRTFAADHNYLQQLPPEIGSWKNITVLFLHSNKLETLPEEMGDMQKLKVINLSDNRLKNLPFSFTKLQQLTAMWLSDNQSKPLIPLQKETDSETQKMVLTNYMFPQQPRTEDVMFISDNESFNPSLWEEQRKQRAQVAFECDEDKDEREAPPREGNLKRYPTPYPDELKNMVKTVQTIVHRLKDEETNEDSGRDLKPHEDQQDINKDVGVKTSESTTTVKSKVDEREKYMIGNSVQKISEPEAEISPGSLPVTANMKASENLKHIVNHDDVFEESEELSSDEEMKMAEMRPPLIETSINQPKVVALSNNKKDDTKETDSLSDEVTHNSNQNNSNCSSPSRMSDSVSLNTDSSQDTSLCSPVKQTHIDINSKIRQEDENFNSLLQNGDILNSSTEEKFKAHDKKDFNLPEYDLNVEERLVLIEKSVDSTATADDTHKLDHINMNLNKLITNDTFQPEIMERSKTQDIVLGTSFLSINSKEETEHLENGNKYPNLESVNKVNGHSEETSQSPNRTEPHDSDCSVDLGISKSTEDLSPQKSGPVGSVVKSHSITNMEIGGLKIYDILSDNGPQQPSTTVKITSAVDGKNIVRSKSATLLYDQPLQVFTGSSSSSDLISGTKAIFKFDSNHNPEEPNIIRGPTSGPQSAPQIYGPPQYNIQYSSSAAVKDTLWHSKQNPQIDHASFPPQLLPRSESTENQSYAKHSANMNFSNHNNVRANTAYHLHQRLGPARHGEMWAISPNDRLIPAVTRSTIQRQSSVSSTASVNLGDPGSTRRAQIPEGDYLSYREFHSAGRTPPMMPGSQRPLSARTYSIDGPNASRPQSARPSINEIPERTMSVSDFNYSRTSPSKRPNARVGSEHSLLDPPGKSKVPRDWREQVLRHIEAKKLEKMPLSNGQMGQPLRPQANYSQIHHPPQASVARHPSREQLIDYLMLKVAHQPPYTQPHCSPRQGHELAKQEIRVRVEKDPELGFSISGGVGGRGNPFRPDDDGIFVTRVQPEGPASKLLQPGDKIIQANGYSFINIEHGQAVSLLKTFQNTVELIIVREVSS

The target in this assay is Myc-Erbin (pRK5-Myc-Erbin) (UniProt Q96RT1). Nature of the assay: co-precipitation from co-transfected HEK293 cells (data not shown).

These are yes or no findings as the source states them, for the method shown. In cells and extracts the contact can be indirect. Some entries that bind do so weakly or less than the wild type.

Consider “HA-Erbin (pKH3-HA-Erbin) (from UniProt Q96RT1 1-1371)”, for which the binding entry was “binds”.
